# Test results: PubChem BioAssay AID2685 (National Center for Advancing Translational Sciences (NCATS), 2010)
# This is one part of the list. These are further read-outs of the screen, such as a control signal, another cell line or another target. No call is given for them. Most of these compounds were active or inconclusive in the main read-out, so they are no random draw. The note in brackets gives the kind of curve behind each potency; many fits are weak.
# Assay: qHTS Assay for Lipid Storage Modulators in Drosophila S3 Cells;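 for cell number change: cells counted by Cell Tracker Red CMTPX staining in the red channel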
# Conditions: BODIPY lipid droplet fluorescence, 18-24 h; for cell number change: measured here: cell count max response, cells fed with added oleic acid
# In short: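 Laser-scanning cytometry quantifies lipid droplet accumulation (500–530 nm total intensity; droplet/cell object ratio) in oleic acid-fed (400 uM added) Drosophila S3 cells treated with a concentration series. 20 uM Triacsin C defined 100% inhibition.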
# [1] = measured here: lipid fluorescence (Fed channel) AC50, cells fed with added oleic acid
# [2] = measured here: cell number channel AC50, cells fed with added oleic acid
Compound,cell number change,AC50 [1],AC50 [2]
CCOc1ccc(-c2n[nH]c(=S)c3ccccc23)cc1,-11.3%,,
Cn1ncc2c1ncn1nc(CCc3ccccc3)nc21,22%,"29.1 µM [rising, single point]",
COC(=O)C(CC(C)C)NC(=O)/C=C/c1ccc(Cl)cc1 (configuration not stated),21.7%,"0.206 µM [falling, full curve, poor fit]",
CC(C)OCCCNC(=O)c1cc2c(=O)n(C)c3ccccc3c2n1C,-21.5%,"14.6 µM [falling, partial curve, poor fit]",
CC(C)n1cnc2cc(NC(=O)c3ccco3)ccc21,-6.72%,,"0.116 µM [rising, full curve, poor fit]"
Cn1nc(-c2ccccc2)c(C(=O)Nc2ccc(Cl)cc2)c1Cl,30.7%,,"4.61 µM [rising, full curve]"
CCCn1c(N)nc2ccccc21,,,"0.731 µM [falling, full curve, poor fit]"
CCOc1ccc(N(CC)C(=O)COc2cc(=O)n(C)c3ccccc23)cc1,,"6.51 µM [rising, single point]",
CCCN(CCC)CCCNC(=S)Nc1ccc2nc(N3CCN(C)CC3)cc(C)c2c1,58.2%,,
COc1ccc(-c2cc(C(=O)NCCCN3CCOCC3)no2)cc1,20.3%,"29.1 µM [rising, single point]",
Cc1nnc2c(N3CCN(C(=O)c4ccco4)CC3)nc3ccccc3n12,-28.4%,"0.651 µM [falling, full curve, poor fit]","4.61 µM [falling, full curve, poor fit]"
CCN1CCc2c(sc(N)c2C#N)C1,-104%,,"29.1 µM [falling, single point]"
CN(CC(=O)NC(=O)NCc1ccccc1)Cc1ccc(Cl)c(Cl)c1,-4.72%,"6.51 µM [rising, partial curve]",
COc1ccc(S(=O)(=O)N2CCC(C(=O)N3CCOCC3)CC2)cc1,32.9%,"29.1 µM [rising, single point]","5.8 µM [rising, full curve, poor fit]"
Cc1ccc(NS(=O)(=O)c2cc([N+](=O)[O-])ccc2NNC(=S)Nc2cc(C)ccc2C)c(C)c1,2.85%,,
CC1CCC(NC(=O)c2cccc(S(=O)(=O)N3CCN(c4ccc(F)cc4)CC3)c2)CC1 (configuration not stated),-25.7%,"5.8 µM [falling, full curve]",
O=C1CC(c2ccco2)Cc2nc(Nc3nc(-c4ccccc4)c4ccccc4n3)ncc21 (configuration not stated),15%,"0.092 µM [rising, single point]",
CN(C)S(=O)(=O)c1ccc(N2CCCC2)c(C(=O)Nc2ccc(Br)cc2F)c1,33.9%,"10.3 µM [rising, partial curve]","5.17 µM [rising, partial curve]"
Cc1cc(NC(=O)c2ccccc2)c(Cl)cc1N,15.1%,"10.3 µM [rising, partial curve, poor fit]",
O=S(=O)(Nc1ccc(-c2cn3ccsc3n2)cc1)c1ccc2c(c1)OCCO2,-6.3%,"0.366 µM [rising, full curve]",

Compound,cell number change,AC50 [1],AC50 [2]
COc1cc(OC)c(C(=S)N2CCCC2)cc1OC,-4.01%,"29.1 µM [rising, single point]",
CC(C)Oc1cccc(C(=O)C2CCCN(C(=O)c3cc(C(F)(F)F)[nH]n3)C2)c1 (configuration not stated),-16.4%,"16.4 µM [rising, partial curve]",
Cc1ccccc1/C=C/c1nc2ccccc2c(=O)[nH]1,-24.9%,,
O=C(NC1CCCC1)c1ccc(CNc2c(N3CCOCC3)c(=O)c2=O)cc1,6.69%,,
CN(C(=O)CS(=O)(=O)Cc1ccccc1Cl)c1ccccc1,59.7%,"29.1 µM [rising, partial curve]","20.6 µM [rising, partial curve]"
CCN(CC(=O)Nc1c(F)cccc1F)C(=O)CSCc1c(C)noc1C,1.39%,"1.16 µM [falling, full curve]",
CCOC(=O)N1CCC(NC(=O)CCCN2C(=O)CSc3ncccc32)CC1,-22.3%,"0.13 µM [falling, full curve]","0.00411 µM [falling, full curve, poor fit]"
Cc1sc2nc(CSCC(=O)Nc3ccc(Cl)cc3F)[nH]c(=O)c2c1C,23.5%,"23.1 µM [rising, partial curve, poor fit]",
CCCCN(C)C(=O)c1cccc(OC2CCN(CC(C)(C)C)CC2)c1,-16.8%,,
CC1(C)CC(=O)C2=C(C1)N(c1cccc(Cl)c1)C(=O)NC2(C(F)(F)F)C(F)(F)F,13.4%,,"0.082 µM [rising, partial curve, poor fit]"
COc1cccc(/C=N/NC(=O)c2ccccc2NC(=O)c2ccco2)c1OC,-2.99%,"0.58 µM [rising, partial curve]",
Cc1cccc(OCC(=O)NNC(=O)c2cc(S(=O)(=O)N(C)C)ccc2N2CCCC2)c1,-3.11%,"29.1 µM [rising, single point]",
NC(=O)[C@@H]1[C@@H]2C(=O)N(c3ccc(F)cc3)C(=O)[C@@H]2[C@H]2C=Cc3ccccc3N21,-13.2%,"20.6 µM [falling, partial curve]",
Cc1ccc2nc(/C(C#N)=C\c3ccc(OC(=O)c4cccs4)cc3)[nH]c2c1,-29.6%,"18.4 µM [falling, single point]",
COCCN1C(=O)C(=O)/C(=C(/O)c2ccc(S(=O)(=O)N3CCOCC3)cc2)C1c1ccc(OC)c(OC)c1 (configuration not stated),40.3%,"1.3 µM [rising, partial curve, poor fit]","29.1 µM [rising, single point]"
COc1ccc(CCN(C)Cc2c(O)ccc3cc(Br)ccc23)cc1OC,,"0.58 µM [rising, single point]",
CCO/C=C/C(O)(CNC(=O)c1ccc(C(C)(C)C)cc1)C(F)(F)F (configuration not stated),0.967%,,
O=C(COc1ccc2c(c1)OCO2)Nc1nccs1,-9.52%,"0.206 µM [falling, single point]",
COc1cc(/C=C/c2ccc3cccc(O)c3n2)c(Br)cc1O,20.4%,"6.51 µM [falling, single point]",
COc1ccc(-c2noc(CN(C(=O)c3ccc(OC(C)=O)cc3)C(C)C)n2)cc1OC,,"6.51 µM [rising, single point]","6.51 µM [falling, single point]"

# Three of these compounds, set out differently:
Compound | cell number change | AC50 [1] | AC50 [2]
CCCn1c(N)nc2ccccc21 |  |  | 0.731 µM [falling, full curve, poor fit]
CCOC(=O)N1CCC(NC(=O)CCCN2C(=O)CSc3ncccc32)CC1 | -22.3% | 0.13 µM [falling, full curve] | 0.00411 µM [falling, full curve, poor fit]
COc1ccc(CCN(C)Cc2c(O)ccc3cc(Br)ccc23)cc1OC |  | 0.58 µM [rising, single point] | 

# Nothing new here: an excerpt of the list.
Compound,cell number change,AC50 [1],AC50 [2]
CN(C(=O)CS(=O)(=O)Cc1ccccc1Cl)c1ccccc1,59.7%,"29.1 µM [rising, partial curve]","20.6 µM [rising, partial curve]"
CCN(CC(=O)Nc1c(F)cccc1F)C(=O)CSCc1c(C)noc1C,1.39%,"1.16 µM [falling, full curve]",

# The listing continues:

Compound,cell number change,AC50 [1],AC50 [2]
Cc1cccc(N2CC(C(=O)Nc3nnc(SCC(=O)N4CCOCC4)s3)CC2=O)c1 (configuration not stated),41.2%,"35.5 µM [rising, partial curve, poor fit]","20 µM [rising, single point]"
CCOc1cc(/C=N/NC(=O)c2ccccc2OCc2ccc(F)cc2)ccc1O,-30.1%,,"23.1 µM [falling, single point]"
CCOC(=O)Cn1c(-c2ccc(Cl)nc2)nc2ccccc21,,"3.66 µM [falling, full curve]",
c1ccc(-c2noc(-c3ccc4c(c3)OCO4)n2)cc1,25.8%,,
O=C(NCCc1ccccc1)c1cnn2c(C(F)F)cc(C3CC3)nc12,37.3%,"0.82 µM [rising, full curve]","0.92 µM [rising, full curve, poor fit]"
Cc1cc(CNC(=O)C(C)Cc2ccccc2)nn1C (configuration not stated),19.2%,"0.13 µM [falling, full curve, poor fit]",
O=C(Nc1n[nH]c(C(F)(F)F)n1)C1CC1,-4.74%,"0.0326 µM [falling, full curve, poor fit]",
O=C(CN(C(=O)Cn1nnc(-c2ccc(F)cc2)n1)c1cccc(F)c1)NC1CCCC1,36.8%,,"5.8 µM [rising, partial curve, poor fit]"
O=C(Nc1cc(=O)[nH]c(=O)[nH]1)c1cccc(Br)c1,-51.9%,"29.1 µM [falling, single point]","18.4 µM [falling, single point]"
O=S(=O)(NCCCCNS(=O)(=O)c1c(F)cccc1F)c1ccc2c(c1)OCCO2,-3.81%,"5.17 µM [falling, single point]",
CC(C)(C)NC(=O)COc1ccccc1C#N,,"0.164 µM [falling, full curve]",
Cc1ccc(C2CC(c3ccco3)n3ncnc3N2)cc1 (configuration not stated),30.2%,"3.66 µM [rising, single point]","6.51 µM [rising, single point]"
CCC(C)n1c(SCC(=O)/C(C#N)=C(\C)N)nc2ccccc2c1=O (configuration not stated),-2.22%,,
Cc1ccc(S(=O)(=O)Nc2ccc3ncccc3c2)cc1,-25.3%,"8.2 µM [falling, partial curve]",
CC(C)c1nc(N2CCCC2)c(C#N)c2c1CCCC2,,,"0.164 µM [falling, full curve, poor fit]"
COc1ccc(/C=N/Nc2cc(C)nc(-n3nc(C)cc3C)n2)cc1,-69.8%,"0.058 µM [falling, full curve, poor fit]","18.4 µM [falling, partial curve]"
CCc1ccc(S(=O)(=O)c2ccc(-n3nc(C)cc3N)cc2)cc1,39.4%,"6.51 µM [rising, single point]","8.2 µM [rising, partial curve, poor fit]"
CO/N=C\CC(=O)Nc1ccc(F)cc1,-104%,"14.6 µM [falling, partial curve]","14.6 µM [falling, partial curve]"
COc1ccc(/C=C2/C(=N)N3N=C(CC(=O)N4CCCC4)SC3=NC2=O)cc1OC,31.5%,"29.1 µM [rising, single point]","14.6 µM [rising, partial curve, poor fit]"
